These are yes or no findings as the source states them, for the method shown. Binding seen in cells or lysates may run through a third protein. Some binding calls cover weakened binding; strength is not graded here.
Target: HA-μ-Opioid receptor (UniProt P42866)
Test: co-IP; lysate of transfected WTT-CHO cells (0.5% DDM, 140 mM NaCl, 2 mM EDTA, 25 mM Tris pH 7.4) immunoprecipitated overnight at 4 °C with anti-HA (16B12) on Protein G Dynabeads; Western blot with anti-HA; SDS-resistant oligomer bands read beside the monomer

Sequences of proteins named here, by UniProt entry; tags and fusion partners are left off.
UniProt P42866: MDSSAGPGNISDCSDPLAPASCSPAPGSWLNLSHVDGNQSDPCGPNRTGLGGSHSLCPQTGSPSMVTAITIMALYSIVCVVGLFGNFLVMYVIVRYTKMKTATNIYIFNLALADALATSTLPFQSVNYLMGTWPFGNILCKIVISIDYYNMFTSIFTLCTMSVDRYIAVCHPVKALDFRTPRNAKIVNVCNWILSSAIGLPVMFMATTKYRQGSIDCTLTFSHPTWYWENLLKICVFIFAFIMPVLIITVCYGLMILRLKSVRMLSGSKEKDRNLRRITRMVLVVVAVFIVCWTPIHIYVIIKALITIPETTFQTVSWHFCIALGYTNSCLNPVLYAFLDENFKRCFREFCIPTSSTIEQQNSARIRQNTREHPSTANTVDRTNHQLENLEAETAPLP

For “HA-μ-Opioid receptor (from UniProt P42866 1-398)”, which binding is on record?
The binding was “binds”.

Reference: PMC8913689
